No constants are given. Whether binding was seen depends on the method and setting. In cells and extracts the contact can be indirect. These calls come from enrichment with a bait or labelling near it, and not all partners need be listed.

The assay deals with TgPPM3C-HA (Toxoplasma gondii (endogenous locus in Prugniaud Δku80Δhxgprt parasites)). Nature of the assay: affinity purification with mass spectrometry; anti-HA magnetic beads incubated overnight at 4°C with cleared lysate of HFF monolayers infected 24 h with TgPPM3C-HA tachyzoites (control: untagged PruQ); lysis buffer 50 mM Tris pH 7.4, 200 mM NaCl, 1% Triton X-100, 0.5% CHAPS with protease and phosphatase inhibitors; washes up to 300 mM NaCl, 0.1% Triton X-100; eluates analysed by LC-MS/MS; two independent experiments.

B1: GRA7 (protein, UniProt O00933 27-236)
chain: ATASDDELMSRIRNSDFFDGQAPVDSLRPTNAGVDSKGTDDHLTTSMDKASVESQLPRREPLETEPDEQEEVHFRKRGVRSDAEVTDDNIYEEHTDRKVVPRKSEGKRSFKDLLKKLALPAVGMGASYFAADRLVPELTEEQQRGDEPLTTGQNVGTVLGFAALAAAAAFLGMGLTRTYRHFSPRKNRSRQPALEQEVPESGEDGEDARQ
In the case of B1, the binding result is reported as “binds”.

The values above are taken from PMC7793252.
